Results are given in words; binding and its absence hold for the method and conditions named. A result given as binding can be weak or reduced; the word gives no strength. Tags and fused reporters may be left off the sequences shown. For part of these data: Binding seen in cells or lysates may run through a third protein.
T1: GFP-LMKB(1457–1742) (human) (UniProt Q9Y4F3)
T1 sequence: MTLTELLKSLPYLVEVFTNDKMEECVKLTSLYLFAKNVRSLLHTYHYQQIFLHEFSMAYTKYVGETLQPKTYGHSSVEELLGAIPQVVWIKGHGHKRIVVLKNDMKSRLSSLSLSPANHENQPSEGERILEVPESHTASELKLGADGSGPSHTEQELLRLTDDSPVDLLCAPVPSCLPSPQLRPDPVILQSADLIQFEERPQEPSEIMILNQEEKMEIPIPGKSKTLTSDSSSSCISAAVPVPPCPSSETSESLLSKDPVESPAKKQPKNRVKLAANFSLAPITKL

T2: GFP-LMKB(1622–1742) (human) (UniProt Q9Y4F3)
T2 sequence: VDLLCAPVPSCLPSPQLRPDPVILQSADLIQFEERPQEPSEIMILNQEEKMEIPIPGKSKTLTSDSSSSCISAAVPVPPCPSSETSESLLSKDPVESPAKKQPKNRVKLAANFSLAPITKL


Columns and labels:
[1] = target: T1, GFP-LMKB(1457–1742) (human); assay: co-IP; extracts of co-transfected COS-7 cells incubated with mouse anti-GFP antibodies and protein G Sepharose; co-precipitated FLAG-Ge-1 detected with anti-FLAG antibodies
[2] = target: T2, GFP-LMKB(1622–1742) (human); assay: as above
[3] = target: NLS-Ge-1 (Ge-1 fused to an exogenous nuclear localization sequence); assay: two-hybrid; modified two-hybrid assay inside HEp-2 cells: Ge-1 (whole or fragment) fused to an exogenous NLS localizes to nuclear dots; recruitment of co-expressed GFP- or RFP-fused LMBK partner (LMKB whole or fragments) to the nuclear dots read by immunofluorescence; cells fixed and stained 24 hours after transfection

binding [1] | binding [2] | binding [3] | Molecule
binds | binds |  | FLAG-Ge-1
 |  | binds | GFP-LMKB(1457–1742) (domain or fragment, UniProt Q9Y4F3-1 1457-1742) MTLTELLKSLPYLVEVFTNDKMEECVKLTSLYLFAKNVRSLLHTYHYQQIFLHEFSMAYTKYVGETLQPKTYGHSSVEELLGAIPQVVWIKGHGHKRIVVLKNDMKSRLSSLSLSPANHENQPSEGERILEVPESHTASELKLGADGSGPSHTEQELLRLTDDSPVDLLCAPVPSCLPSPQLRPDPVILQSADLIQFEERPQEPSEIMILNQEEKMEIPIPGKSKTLTSDSSSSCISAAVPVPPCPSSETSESLLSKDPVESPAKKQPKNRVKLAANFSLAPITKL
 |  | binds | GFP-LMKB(1622–1742) (domain or fragment, UniProt Q9Y4F3-1 1622-1742) VDLLCAPVPSCLPSPQLRPDPVILQSADLIQFEERPQEPSEIMILNQEEKMEIPIPGKSKTLTSDSSSSCISAAVPVPPCPSSETSESLLSKDPVESPAKKQPKNRVKLAANFSLAPITKL
 |  | no binding | GFP-LMKB(1–687) (domain or fragment, UniProt Q9Y4F3-1 1-687) MMEGNGTENSCSRTRGWLQQDNDAKPWLWKFSNCFSRPEQTLPHSPQTKEYMENKKVAVELKDVPSPLHAGSKLFPAVPLPDIRSLQQPKIQLSSVPKVSCCAHCPNEPSTSPMRFGGGGGGSGGTSSLIHPGALLDSQSTRTITCQVGSGFAFQSASSLQNASARNNLAGIASDFPSMCLESNLSSCKHLPCCGKLHFQSCHGNVHKLHQFPSLQGCTSAGYFPCSDFTSGAPGHLEEHISQSELTPHLCTNSLHLNVVPPVCLKGSLYCEDCLNKPARNSIIDAAKVWPNIPPPNTQPAPLAVPLCNGCGTKGTGKETTLLLATSLGKAASKFGSPEVAVAGQVLENLPPIGVFWDIENCSVPSGRSATAVVQRIREKFFKGHREAEFICVCDISKENKEVIQELNNCQVTVAHINATAKNAADDKLRQSLRRFANTHTAPATVVLVSTDVNFALELSDLRHRHGFHIILVHKNQASEALLHHANELIRFEEFISDLPPRLPLKMPQCHTLLYVYNLPANKDGKSVSNRLRRLSDNCGGKVLSITGCSAILRFINQDSAERAQKRMENEDVFGNRIIVSFTPKNRELCETKSSNAIADKVKSPKKLKNPKLCLIKDASEQSSSAKATPGKGSQANSGSATKNTNVKSLQELCRMESKTGHRNSEHQQGHLRLVVPTHGNSSAAVS
 |  | no binding | GFP-LMKB(389–1199) (domain or fragment, UniProt Q9Y4F3-1 389-1199) EFICVCDISKENKEVIQELNNCQVTVAHINATAKNAADDKLRQSLRRFANTHTAPATVVLVSTDVNFALELSDLRHRHGFHIILVHKNQASEALLHHANELIRFEEFISDLPPRLPLKMPQCHTLLYVYNLPANKDGKSVSNRLRRLSDNCGGKVLSITGCSAILRFINQDSAERAQKRMENEDVFGNRIIVSFTPKNRELCETKSSNAIADKVKSPKKLKNPKLCLIKDASEQSSSAKATPGKGSQANSGSATKNTNVKSLQELCRMESKTGHRNSEHQQGHLRLVVPTHGNSSAAVSTPKNSGVAEPVYKTSQKKENLSARSVTSSPVEKKDKEETVFQVSYPSAFSKLVASRQVSPLLASQSWSSRSMSPNLLNRASPLAFNIANSSSEADCPDPFANGADVQVSNIDYRLSRKELQQLLQEAFARHGKVKSVELSPHTDYQLKAVVQMENLQDAIGAVNSLHRYKIGSKKILVSLATGAASKSLSLLSAETMSVLQDAPACCLPLFKFTDIYEKKFGHKLNVSDLYKLTDTVAIREQGNGRLVCLLPSSQARQSPLGSSQSHDGSSTNCSPIIFEELEYHEPVCRQHCSNKDFSEHEFDPDSYKIPFVILSLKTFAPQVHSLLQTHEGTVPLLSFPDCYIAEFGDLEVVQENQGGVPLEHFITCVPGVNIATAQNGIKVVKWIHNKPPPPNTDPWLLRSKSPVGNPQLIQFSREVIDLLKSQPSCVIPISHFIPSYHHHFAKQCRVSDYGYSKLIELLEAVPHVLQILGMGSKRLLTLTHRAQVKRFTQDLLKLLKSQASKQVIVRE
